Taken from: PubChem BioAssay AID504744 (Drosophila RNAi Screening Center, 2011)

- Screen: 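Uncover factors, including feedback loops, that control dAkt activation in fly cells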 (primary screen)
- Cells: Drosophila Kc167 cells
- Reagents: long dsRNA against Drosophila genes, 250 ng dsRNA per well of a 384-well plate
- Timing: 3 days of knock-down, then overnight serum-free starvation before stimulation
- Treatment: bovine insulin at 387 nM for 10 minutes after 12 h without serum
- Detection: 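Per-well phospho-dAkt level from an in-cell fluorescent antibody stain, divided by a DNA-dye signal; log2 residuals turned into z-scores that take cell number into account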
- Rule for the call: 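Under insulin, a gene counts as a hit if the average z-score of two replicates lies above 2.5 or below -2.5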
The deposit covers about 23,000 reagents; below is a random part of those with a known target gene and a result. Over the whole deposit, 98 (0.43%) got an active call. 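Only hit calls are given; the phospho-dAkt signals, z-scores and hit direction were not deposited.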 A plus sign joins genes that one reagent is predicted to hit.

no.	predicted target	amplicon	outcome
1	RagC-D	DRSC07239	inactive
2	Orc6	DRSC07497	inactive
3	CG10337	DRSC02038	inactive
4	cwo	DRSC17072	inactive
5	CG11369	DRSC17779	inactive
6	Obp56g	DRSC06432	inactive
7	RpL14	DRSC11269	inactive
8	Polr2L	DRSC14630	inactive
9	CG10332 (retired record) + IM18	DRSC04064	inactive
10	TBC1d7	DRSC15985	inactive
11	CG8188	DRSC20090	inactive
12	Csk	DRSC12861	inactive
13	Csk	DRSC15223	inactive
14	CG3335	DRSC10358	inactive
15	CG13247	DRSC11695	inactive
16	Or35a	DRSC03389	inactive
17	shi	DRSC20373	inactive
18	Mat1	DRSC07465	inactive
19	amd	DRSC02608	inactive
20	amd	DRSC03483	inactive
21	CG15754	DRSC19719	inactive
22	CG2901	DRSC18239	inactive
23	Lapsyn	DRSC04249	inactive
24	CG15528	DRSC15065	inactive
25	Sou	DRSC04356	inactive
26	dpr2	DRSC02370	inactive
27	dpr2	DRSC02371	inactive
28	CG18745	DRSC15382	inactive
29	spidey	DRSC17932	inactive
30	CG8745	DRSC11033	inactive
31	CG8745	DRSC11034	inactive
32	CG8745	DRSC22741	inactive
33	wgn	DRSC19998	inactive
34	mRpS34	DRSC09918	inactive
35	CG18748	DRSC15385	inactive
36	Tsp42Ed	DRSC05940	inactive
37	CG34444	DRSC06435	inactive
38	CG3355	DRSC00598	inactive
39	CG10433	DRSC04068	inactive
40	CG5541	DRSC19946	inactive
41	exp	DRSC06313	inactive
42	Miox	DRSC10747	inactive
43	CG5828	DRSC02900	inactive
44	SA1	DRSC03424	inactive
45	slx1	DRSC12290	inactive
46	rush	DRSC18568	inactive
47	myo	DRSC17174	inactive
48	barr	DRSC03488	inactive
49	Drs	DRSC08657	inactive
50	Ppm1	DRSC08260	inactive
51	ORMDL	DRSC11737	inactive
52	CG14478	DRSC06450	inactive
53	Fnta	DRSC00557	inactive
54	LUBEL	DRSC02141	inactive
55	Cph	DRSC17507	inactive
56	Cph	DRSC18434	inactive
57	ocn	DRSC17020	inactive
58	CG5860	DRSC15896	inactive
59	CG6013	DRSC15947	inactive
60	CG1662	DRSC19754	inactive
61	Rga	DRSC12364	inactive
62	CtIP	DRSC11785	inactive
63	CG15480	DRSC02490	inactive
64	CG15208	DRSC19654	inactive
65	CG10804	DRSC17764	inactive
66	Srx	DRSC20005	inactive
67	net	DRSC00309	inactive
68	ND6 (retired record)	DRSC21271	inactive
69	cocoon	DRSC10916	inactive
70	cbc	DRSC06957	inactive
71	NKAIN	DRSC04531	inactive
72	NKAIN	DRSC22470	inactive
73	Gycalpha99B	DRSC16690	inactive
74	Rab26	DRSC11837	inactive
75	Rab26	DRSC11838	inactive
76	Rab26	DRSC11839	inactive
77	CG8483	DRSC16430	inactive
78	CG15286	DRSC01907	inactive
79	CG14275	DRSC02379	inactive
80	CR18217	DRSC21506	inactive
81	CG32104	DRSC10127	inactive
82	CG32104	DRSC10128	inactive
83	CG12540	DRSC19471	inactive
84	Cht4	DRSC04603	inactive

An excerpt taken from the entries so far:
no.	predicted target	amplicon	outcome
19	amd	DRSC02608	inactive
20	amd	DRSC03483	inactive
21	CG15754	DRSC19719	inactive
22	CG2901	DRSC18239	inactive
23	Lapsyn	DRSC04249	inactive
24	CG15528	DRSC15065	inactive
25	Sou	DRSC04356	inactive
26	dpr2	DRSC02370	inactive
27	dpr2	DRSC02371	inactive
28	CG18745	DRSC15382	inactive
29	spidey	DRSC17932	inactive
30	CG8745	DRSC11033	inactive
31	CG8745	DRSC11034	inactive
32	CG8745	DRSC22741	inactive
33	wgn	DRSC19998	inactive
34	mRpS34	DRSC09918	inactive
35	CG18748	DRSC15385	inactive
36	Tsp42Ed	DRSC05940	inactive
37	CG34444	DRSC06435	inactive
38	CG3355	DRSC00598	inactive
39	CG10433	DRSC04068	inactive
40	CG5541	DRSC19946	inactive
41	exp	DRSC06313	inactive
42	Miox	DRSC10747	inactive
43	CG5828	DRSC02900	inactive
44	SA1	DRSC03424	inactive
45	slx1	DRSC12290	inactive
46	rush	DRSC18568	inactive
47	myo	DRSC17174	inactive
48	barr	DRSC03488	inactive
49	Drs	DRSC08657	inactive

The listing continues:
no.	predicted target	amplicon	outcome
85	Wnt2	DRSC05160	inactive
86	Wnt2	DRSC07574	inactive
87	CG32333	DRSC08627	inactive
88	CG32333	DRSC08629	inactive
89	CG14691	DRSC14914	inactive
90	CG1578	DRSC19729	inactive
91	CG7631	DRSC01873	inactive
92	CG8252	DRSC07126	inactive
93	Muc11A	DRSC19498	inactive
94	CG33108	DRSC21613	inactive
95	CG18335	DRSC06723	inactive
96	Zyx	DRSC17186	inactive
97	CG42374 + Mettl5	DRSC11085	inactive
98	CG9040	DRSC11053	inactive
99	CCT8	DRSC07130	inactive
100	Tapdelta	DRSC05946	inactive
101	Dh31-R	DRSC06647	inactive
102	Dh31-R	DRSC06669	inactive
103	CG32483	DRSC07902	inactive
104	eIF4E5	DRSC10975	inactive
105	Xe7	DRSC12307	inactive
106	CG32267	DRSC21561	inactive
107	CG17440	DRSC18126	inactive
108	CG9784	DRSC20210	inactive
109	nompC	DRSC03581	inactive
110	Sardh	DRSC06981	inactive
111	nuf	DRSC11379	active
112	nuf	DRSC22524	inactive
113	Atg13	DRSC16228	inactive
114	CG34409	DRSC14577	inactive
115	CG34409	DRSC21667	inactive
116	Vm26Aa	DRSC03472	inactive
117	CG6495	DRSC01993	inactive
118	asRNA:Eig63F-2 + Eip63F-1	DRSC21446	inactive
119	CG2816	DRSC00539	inactive
120	esc	DRSC03529	inactive
121	CG18563	DRSC02676	inactive
122	SdhCL	DRSC16078	inactive
123	homer	DRSC03547	inactive
124	CG1409	DRSC17910	inactive
125	CG10543	DRSC04081	inactive
126	Wsck	DRSC13682	inactive
127	Strn-Mlck	DRSC05032	inactive
128	Strn-Mlck	DRSC05598	inactive
129	Strn-Mlck	DRSC07471	inactive
130	raw	DRSC03599	active
131	raw	DRSC03600	inactive
132	CG7275	DRSC10796	inactive
133	Drip	DRSC07405	inactive
134	DNAlig3	DRSC15201	inactive
135	l(2)k09913	DRSC04699	inactive
136	Non3	DRSC16359	inactive
137	alphaSnap	DRSC11285	inactive
138	CG11029	DRSC02119	inactive
139	Als2	DRSC11806	inactive
140	CG3149	DRSC17732	inactive
141	L	DRSC06666	inactive
142	L	DRSC06668	inactive
143	tkv	DRSC00860	inactive
144	tkv	DRSC03623	inactive
145	tkv	DRSC22606	inactive
146	CG11679	DRSC19415	inactive
147	CG4338	DRSC15564	inactive
148	ltl	DRSC10206	inactive
149	ltl	DRSC10870	inactive
150	CG41099	DRSC21049	inactive
151	CG41099	DRSC21051	inactive
152	CG12170	DRSC12199	inactive
153	CG12075	DRSC17801	inactive
154	CG4036	DRSC02735	inactive
155	AOX4	DRSC15337	inactive
156	Fgop2	DRSC02016	inactive
157	Imp	DRSC18861	inactive
158	Imp	DRSC20255	inactive
159	CG13003	DRSC19522	inactive
160	CG2540	DRSC19856	inactive
161	l(3)mbn	DRSC08793	inactive
162	CG33229	DRSC07863	inactive
163	CG4576	DRSC15604	inactive
164	Hr83	DRSC12521	inactive
165	Kyat	DRSC16147	inactive
166	rad (retired record)	DRSC19687	inactive
167	rad (retired record)	DRSC22865	inactive
168	CG42755 (retired record)	DRSC09105	inactive
169	CG42755 (retired record)	DRSC09106	inactive
170	mRpS18A	DRSC14369	inactive
171	GstT1	DRSC06243	inactive
172	CG10628	DRSC02080	inactive
173	tara	DRSC17076	inactive
174	CG30271	DRSC04170	inactive
175	Prosalpha4T2	DRSC04643	inactive
176	CG17917	DRSC12570	inactive
177	CG13325	DRSC06362	inactive
178	CG17202	DRSC15194	inactive
179	PGRP-SC2	DRSC06481	inactive
180	CG31233	DRSC15888	inactive
181	CG6614	DRSC02974	inactive
182	CG18507	DRSC01334	inactive
183	CG18507	DRSC01914	inactive
184	CG13716	DRSC08325	inactive
185	CG13716	DRSC22815	inactive
186	Gbeta5	DRSC17754	inactive
187	Mf	DRSC16120	inactive
188	CG42319	DRSC06645	inactive
189	CG42319	DRSC06646	inactive
190	CG42319	DRSC22426	inactive
191	Lrrk	DRSC15816	inactive
192	Lrrk	DRSC21971	inactive
193	rdo	DRSC02452	inactive
194	CG10559	DRSC14255	inactive
195	CG11570	DRSC09844	inactive
196	CG16736	DRSC15145	inactive
197	CG1840	DRSC19806	inactive
198	gammaTub23C	DRSC00820	inactive
199	CG8646	DRSC07230	inactive
200	CG32832	DRSC01562	inactive
